Data as given in PubChem BioAssay AID1259282 (Sanger Institute, 2017).
The deposit covers 794 reagents; this is an unselected part. Over the whole deposit, 11 (1.4%) are marked active. 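Calls flag knock-downs that lower viability without drug; drug synergy appears only in the synergy scores; exposure time not stated.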 Unmarked entries are inactive. Viability is capped at 1. Not stated in the record: the amount of reagent, the time to read-out.

Test: 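Kinases whose loss reduces viability on their own or with anchor drugs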 (primary screen)
Cell system: DIFI human colorectal cancer cell line
Reagents: siRNA pool against human genes
Treatment: anchor drug at a mild dose (BYL719 1 µM, cetuximab 5 µg/ml, trametinib 10 nM) or DMSO vehicle; exposure time not given
Measured: 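Robust z-score and replicate-mean viability versus non-targeting pool without drug, plus a synergy score for each low-dose anchor drug (BYL719, cetuximab, trametinib)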
Scale: robust z-score, knock-down alone: higher = more viable cells than typical knock-down; viability, knock-down alone: higher = more viable cells; synergy score with trametinib and synergy score with cetuximab and synergy score with BYL719: higher = stronger combined killing with drug
Rule for the call: 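a knock-down is called essential if its DMSO robust z-score is under -3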
Calls: active = essential (knock-down alone, z below -3); inactive = not essential

The first 7 entries as a preview:
| Target gene | robust z-score, knock-down alone | viability, knock-down alone (fraction of control) | synergy score with trametinib | synergy score with cetuximab | synergy score with BYL719 |
| --- | --- | --- | --- | --- | --- |
| PGK2 (phosphoglycerate kinase 2) | 0.715 | 1 | 0.126 | 0.00302 | -0.0831 |
| PRKD1 (protein kinase D1) | 0.715 | 1 | 0.161 | 0.0947 | 0.0206 |
| AURKB (aurora kinase B) | -0.913 | 0.764 | 0.101 | -0.0851 | 0.0102 |
| CDK10 (cyclin dependent kinase 10) | -0.385 | 0.84 | 0.175 | 0.13 | 0.106 |
| SIK3 (SIK family kinase 3) | 0.715 | 1 | -0.0458 | -0.028 | -0.315 |
| IKBKE (inhibitor of nuclear factor kappa B kinase subunit epsilon) | 0.715 | 1 | 0.0872 | -0.0354 | -0.0754 |
| TAF1 (TATA-box binding protein associated factor 1) | 0.426 | 0.958 | -0.0251 | -0.137 | -0.158 |

The listing, from the start:
| Target gene | robust z-score, knock-down alone | viability, knock-down alone (fraction of control) | synergy score with trametinib | synergy score with cetuximab | synergy score with BYL719 |
| --- | --- | --- | --- | --- | --- |
| PGK2 (phosphoglycerate kinase 2) | 0.715 | 1 | 0.126 | 0.00302 | -0.0831 |
| PRKD1 (protein kinase D1) | 0.715 | 1 | 0.161 | 0.0947 | 0.0206 |
| AURKB (aurora kinase B) | -0.913 | 0.764 | 0.101 | -0.0851 | 0.0102 |
| CDK10 (cyclin dependent kinase 10) | -0.385 | 0.84 | 0.175 | 0.13 | 0.106 |
| SIK3 (SIK family kinase 3) | 0.715 | 1 | -0.0458 | -0.028 | -0.315 |
| IKBKE (inhibitor of nuclear factor kappa B kinase subunit epsilon) | 0.715 | 1 | 0.0872 | -0.0354 | -0.0754 |
| TAF1 (TATA-box binding protein associated factor 1) | 0.426 | 0.958 | -0.0251 | -0.137 | -0.158 |
| AKT3 (AKT serine/threonine kinase 3) | 0.133 | 0.915 | 0.124 | 0.0992 | -0.183 |
| STK32C (serine/threonine kinase 32C) | 0.715 | 1 | -0.151 | 0.0386 | -0.165 |
| DAPK2 (death associated protein kinase 2) | 0.715 | 1 | -0.104 | -0.0355 | -0.0424 |
| SOX9 (SRY-box transcription factor 9) | 0.119 | 0.913 | 0.0334 | -0.00562 | -0.16 |
| PRKD3 (protein kinase D3) | 0.715 | 1 | 0.29 | 0.125 | 0.0658 |
| CDKL5 (cyclin dependent kinase like 5) | 0.715 | 1 | 0.098 | -0.0291 | -0.334 |
| PTK6 (protein tyrosine kinase 6) | 0.715 | 1 | 0.0449 | 0.0279 | -0.139 |
| DLG1 (discs large MAGUK scaffold protein 1) | -0.732 | 0.79 | -0.103 | -0.0584 | -0.239 |
| AK5 (adenylate kinase 5) | 0.715 | 1 | 0.234 | 0.0898 | 0.00607 |
| ACO1 (aconitase 1) | -0.00939 | 0.895 | 0.0118 | -0.0245 | 0.101 |
| RTN4 (reticulon 4) | -0.0727 | 0.886 | -0.0795 | 0.0321 | -0.0882 |
| STK26 (serine/threonine kinase 26) | -1.51 | 0.676 | -0.0534 | -0.0017 | -0.24 |
| PLK3 (polo like kinase 3) | 0.715 | 1 | -0.105 | -0.148 | -0.14 |
| MAP3K4 (mitogen-activated protein kinase kinase kinase 4) | 0.0848 | 0.908 | -0.122 | -0.118 | -0.218 |
| PACSIN1 (protein kinase C and casein kinase substrate in neurons 1) | 0.00319 | 0.897 | 0.165 | 0.00563 | -0.0113 |
| GRK6 (G protein-coupled receptor kinase 6) | -0.984 | 0.753 | -0.136 | -0.146 | -0.346 |
| CAMK2A (calcium/calmodulin dependent protein kinase II alpha) | 0.715 | 1 | 0.066 | -0.079 | -0.181 |
| NME5 (NME/NM23 family member 5) | 0.715 | 1 | 0.16 | 0.0136 | -0.32 |
| RPS6KA1 (ribosomal protein S6 kinase A1) | 0.715 | 1 | -0.00561 | 0.00704 | -0.34 |
| WNK3 (WNK lysine deficient protein kinase 3) | -0.0647 | 0.887 | 0.0616 | -0.0541 | -0.314 |
| PI4KA (phosphatidylinositol 4-kinase alpha) | -0.876 | 0.769 | 0.0943 | 0.000247 | -0.193 |
| GRK5 (G protein-coupled receptor kinase 5) | 0.38 | 0.951 | 0.243 | 0.0828 | -0.0289 |
| CDK15 (cyclin dependent kinase 15) | 0.404 | 0.955 | -0.0888 | -0.0535 | -0.15 |
| PKLR (pyruvate kinase L/R) | 0.47 | 0.965 | 0.215 | 0.0633 | -0.0201 |
| TP53BP1 (tumor protein p53 binding protein 1) | 0.147 | 0.918 | 0.0112 | 0.0883 | -0.133 |
| EFNA4 (ephrin A4) | -2.11 | 0.59 | 0.0432 | -0.0443 | -0.0893 |
| AK4 (adenylate kinase 4) | 0.715 | 1 | 0.18 | 0.0813 | 0.0775 |
| CILK1 (ciliogenesis associated kinase 1) | 0.318 | 0.942 | -0.0506 | -0.0452 | -0.151 |
| MYO3A (myosin IIIA) | -1.34 | 0.702 | -0.148 | 0.00492 | -0.216 |
| ROCK1 (Rho associated coiled-coil containing protein kinase 1) | 0.715 | 1 | -0.116 | -0.0205 | -0.256 |
| AK1 (adenylate kinase 1) | 0.715 | 1 | 0.251 | 0.146 | -0.04 |
| PI4KB (phosphatidylinositol 4-kinase beta) | 0.715 | 1 | -0.0416 | -0.0283 | -0.243 |
| HK2 (hexokinase 2) | -3.22 (active) | 0.429 | -0.0196 | -0.104 | -0.0758 |
| CDK5R1 (cyclin dependent kinase 5 regulatory subunit 1) | 0.715 | 1 | 0.0212 | -0.0926 | -0.316 |
| CSNK1A1 (casein kinase 1 alpha 1) | 0.715 | 1 | 0.0372 | -0.158 | -0.234 |
| ALK (ALK receptor tyrosine kinase) | -1.27 | 0.712 | -0.0108 | 0.00206 | -0.0563 |
| BCR (BCR activator of RhoGEF and GTPase) | -0.363 | 0.843 | 0.2 | 0.0638 | -0.249 |
| TYK2 (tyrosine kinase 2) | 0.715 | 1 | -0.0236 | -0.0398 | -0.0633 |
| TRPM7 | -1.2 | 0.722 | -0.0615 | -0.0391 | -0.113 |
| PANK2 (pantothenate kinase 2) | 0.702 | 0.998 | 0.183 | 0.125 | 0.0307 |
| CDK20 (cyclin dependent kinase 20) | -0.761 | 0.786 | 0.0635 | 0.0595 | -0.0461 |
| PRKAG3 (protein kinase AMP-activated non-catalytic subunit gamma 3) | -1.94 | 0.614 | -0.00837 | -0.116 | -0.181 |
| TPK1 (thiamin pyrophosphokinase 1) | 0.0826 | 0.908 | 0.106 | 0.183 | -0.03 |
| PRKAG2 (protein kinase AMP-activated non-catalytic subunit gamma 2) | 0.715 | 1 | -0.191 | 0.0116 | -0.087 |
| NEK11 (NIMA related kinase 11) | -1.16 | 0.727 | -0.0752 | 0.0204 | -0.077 |
| TJP2 (tight junction protein 2) | 0.715 | 1 | 0.0958 | 0.0393 | -0.202 |
| PRKACA (protein kinase cAMP-activated catalytic subunit alpha) | 0.715 | 1 | -0.0436 | 0.107 | -0.108 |
| NUP107 (nucleoporin 107) | 0.195 | 0.925 | 0.0915 | 0.0479 | -0.137 |
| COQ8B (coenzyme Q8B) | 0.715 | 1 | -0.00878 | -0.0122 | -0.127 |
| CDK2 (cyclin dependent kinase 2) | 0.715 | 1 | 0.091 | 0.0316 | -0.362 |
| PRKAG1 (protein kinase AMP-activated non-catalytic subunit gamma 1) | -0.189 | 0.869 | -0.00927 | -0.0464 | -0.173 |
| MOS (MOS proto-oncogene, serine/threonine kinase) | -0.19 | 0.869 | 0.0281 | 0.0494 | -0.0782 |
| RPS6KA5 (ribosomal protein S6 kinase A5) | -1.34 | 0.701 | 0.0571 | -0.00682 | -0.0764 |
| TEC (tec protein tyrosine kinase) | 0.319 | 0.943 | -0.0261 | -0.0543 | -0.212 |
| CAMK4 (calcium/calmodulin dependent protein kinase IV) | 0.715 | 1 | 0.0396 | 0.0338 | -0.112 |
| PIP4K2B (phosphatidylinositol-5-phosphate 4-kinase type 2 beta) | 0.393 | 0.953 | 0.203 | 0.0562 | -0.101 |
